Results are given in words; binding and its absence hold for the method and conditions named. For some of these results: In cells and extracts the contact can be indirect. Some results given as binding are weak or reduced against the parent protein; the word gives no strength. For some of these results: Tags and fused reporters may be left off the sequences shown.
T1: PJA2 r2m RING domain mutant (C634A, C671A) with a C-terminal 3x-FLAG tag (UniProt O43164)
T1 sequence: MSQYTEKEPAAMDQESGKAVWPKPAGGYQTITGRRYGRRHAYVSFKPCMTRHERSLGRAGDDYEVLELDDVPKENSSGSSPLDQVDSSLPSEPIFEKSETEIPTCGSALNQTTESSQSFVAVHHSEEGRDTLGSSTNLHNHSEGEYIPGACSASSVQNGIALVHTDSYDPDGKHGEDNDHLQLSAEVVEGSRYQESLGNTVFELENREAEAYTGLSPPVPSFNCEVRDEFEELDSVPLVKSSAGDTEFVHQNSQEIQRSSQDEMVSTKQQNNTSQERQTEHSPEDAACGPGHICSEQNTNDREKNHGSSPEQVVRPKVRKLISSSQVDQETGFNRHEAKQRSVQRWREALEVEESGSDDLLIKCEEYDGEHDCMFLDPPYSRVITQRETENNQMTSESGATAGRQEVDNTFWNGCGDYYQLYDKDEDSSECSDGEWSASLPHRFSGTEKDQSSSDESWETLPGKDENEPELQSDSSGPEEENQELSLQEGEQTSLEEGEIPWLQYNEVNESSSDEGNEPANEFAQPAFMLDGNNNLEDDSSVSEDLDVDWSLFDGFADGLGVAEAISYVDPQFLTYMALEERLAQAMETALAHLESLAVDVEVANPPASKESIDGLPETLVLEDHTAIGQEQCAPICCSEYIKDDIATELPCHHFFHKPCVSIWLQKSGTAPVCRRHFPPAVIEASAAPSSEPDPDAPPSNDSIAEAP

Sequences of proteins named here, by UniProt entry; tags and fusion partners are left off. Residues count along the entry.
UniProt P50750, residues 7-332: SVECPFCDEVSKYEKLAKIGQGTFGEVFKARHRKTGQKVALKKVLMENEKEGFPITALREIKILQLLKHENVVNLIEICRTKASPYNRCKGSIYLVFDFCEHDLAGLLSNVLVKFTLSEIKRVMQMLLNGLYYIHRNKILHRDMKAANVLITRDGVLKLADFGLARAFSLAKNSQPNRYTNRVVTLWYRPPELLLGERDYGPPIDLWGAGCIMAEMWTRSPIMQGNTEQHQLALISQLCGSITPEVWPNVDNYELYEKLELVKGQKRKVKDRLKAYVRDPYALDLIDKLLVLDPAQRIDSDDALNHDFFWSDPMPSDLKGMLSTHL
UniProt O60563, residues 1-266: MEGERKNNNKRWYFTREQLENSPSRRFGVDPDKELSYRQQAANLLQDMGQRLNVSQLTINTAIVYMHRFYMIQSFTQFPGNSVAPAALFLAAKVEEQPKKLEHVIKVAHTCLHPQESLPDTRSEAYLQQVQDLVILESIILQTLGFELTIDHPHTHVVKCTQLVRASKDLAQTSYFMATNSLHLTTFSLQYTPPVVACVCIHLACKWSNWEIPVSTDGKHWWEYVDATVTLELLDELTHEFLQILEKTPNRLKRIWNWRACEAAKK
UniProt P04608: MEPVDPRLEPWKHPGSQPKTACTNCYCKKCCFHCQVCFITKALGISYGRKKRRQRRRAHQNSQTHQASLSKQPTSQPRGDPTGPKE

T2: PJA2 wild type with a C-terminal 3x-FLAG tag (UniProt O43164)
T2 sequence: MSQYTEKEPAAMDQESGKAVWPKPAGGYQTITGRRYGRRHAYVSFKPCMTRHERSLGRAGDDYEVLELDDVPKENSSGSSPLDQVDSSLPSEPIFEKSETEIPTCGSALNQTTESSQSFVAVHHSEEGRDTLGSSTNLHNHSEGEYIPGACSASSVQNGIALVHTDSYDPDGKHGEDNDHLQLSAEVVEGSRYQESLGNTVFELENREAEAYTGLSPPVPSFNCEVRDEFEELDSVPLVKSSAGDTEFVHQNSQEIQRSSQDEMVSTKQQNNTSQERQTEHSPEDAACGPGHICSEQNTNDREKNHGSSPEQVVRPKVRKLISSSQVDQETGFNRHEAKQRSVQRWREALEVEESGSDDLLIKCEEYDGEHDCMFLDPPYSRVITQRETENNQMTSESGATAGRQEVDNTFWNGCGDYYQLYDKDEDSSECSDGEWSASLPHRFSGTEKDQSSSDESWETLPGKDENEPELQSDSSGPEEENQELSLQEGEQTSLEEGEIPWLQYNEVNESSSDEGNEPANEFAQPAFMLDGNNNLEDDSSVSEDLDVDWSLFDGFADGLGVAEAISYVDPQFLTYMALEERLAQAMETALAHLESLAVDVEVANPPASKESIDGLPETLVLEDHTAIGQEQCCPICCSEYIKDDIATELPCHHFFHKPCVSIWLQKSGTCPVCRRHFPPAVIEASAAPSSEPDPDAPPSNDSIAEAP


Columns and labels:
[1] = target: CDK9 (7-332) with a 6x His-tag (UniProt P50750); test: co-expression and co-purification of a complex; CDK9 (7-332) with 6x His-tag and cyclin T1 (1-266) in pFastBac Dual, Tat (1-86) in pFastBac1; complex expressed and purified as previously described (ref. 52)
cyclin T1 (1-266) = cyclin T1 (1-266) (UniProt O60563); test: as above
[2] = target: T1, PJA2 r2m RING domain mutant (C634A, C671A) with a C-terminal 3x-FLAG tag; test: co-IP; FLAG IP: FLAG-tagged PJA2 variants co-transfected with vector, Tat-STREP or Tat ΔK (+K41)-STREP into HEK 293T cells, lysate on magnetic M2-FLAG resin 3 h at 4 °C, eluted with 3x FLAG peptide; probed with anti-STREP, anti-CYCT1 and anti-CDK9
[3] = target: T2, PJA2 wild type with a C-terminal 3x-FLAG tag; test: as above
[4] = target: HIV-1 Tat protein (HXB2 isolate), wild type, with a C-terminal 2x-STREP tag (HIV-1 (HXB2 isolate)) (UniProt P04608); test: co-IP; STREP IP: STREP-tagged bait transfected into HEK 293T cells, lysate (50 mM Tris-HCl pH 8.0, 150 mM NaCl, 2 mM MgCl2, 0.5% Triton X-100, 0.2% Na-deoxycholate) on Streptactin Superflow resin 3 h at 4 °C; endogenous PJA2 detected by Western blotting with anti-PJA2; RNA-independent

Molecule	binding [1]	binding (cyclin T1 (1-266))	binding [2]	binding [3]	binding [4]
HIV-1 Tat (1-86), from the pFastBac1 vector (from UniProt P04608 1-86)	binds	binds			
HIV-1 Tat protein (HXB2 isolate), wild type, with a C-terminal 2x-STREP tag (from UniProt P04608 1-86)			binds	binds	
positive transcription elongation factor b (P-TEFb), endogenous, composed of Cyclin T1 (CCNT1) and cyclin-dependent kinase 9 (CDK9) (from UniProt O60563 1-726; P50750 1-372) (complex)			binds	binds	
endogenous PJA2 (RING-H2 finger E3 ubiquitin ligase) (enzyme, UniProt O43164 1-708) MSQYTEKEPAAMDQESGKAVWPKPAGGYQTITGRRYGRRHAYVSFKPCMTRHERSLGRAGDDYEVLELDDVPKENSSGSSPLDQVDSSLPSEPIFEKSETEIPTCGSALNQTTESSQSFVAVHHSEEGRDTLGSSTNLHNHSEGEYIPGACSASSVQNGIALVHTDSYDPDGKHGEDNDHLQLSAEVVEGSRYQESLGNTVFELENREAEAYTGLSPPVPSFNCEVRDEFEELDSVPLVKSSAGDTEFVHQNSQEIQRSSQDEMVSTKQQNNTSQERQTEHSPEDAACGPGHICSEQNTNDREKNHGSSPEQVVRPKVRKLISSSQVDQETGFNRHEAKQRSVQRWREALEVEESGSDDLLIKCEEYDGEHDCMFLDPPYSRVITQRETENNQMTSESGATAGRQEVDNTFWNGCGDYYQLYDKDEDSSECSDGEWSASLPHRFSGTEKDQSSSDESWETLPGKDENEPELQSDSSGPEEENQELSLQEGEQTSLEEGEIPWLQYNEVNESSSDEGNEPANEFAQPAFMLDGNNNLEDDSSVSEDLDVDWSLFDGFADGLGVAEAISYVDPQFLTYMALEERLAQAMETALAHLESLAVDVEVANPPASKESIDGLPETLVLEDHTAIGQEQCCPICCSEYIKDDIATELPCHHFFHKPCVSIWLQKSGTCPVCRRHFPPAVIEASAAPSSEPDPDAPPSNDSIAEAP					binds
